Source: PubChem BioAssay AID743121 (NCATS, 2013)

Screen: 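Knock-downs that sensitise breast cancer cells to camptothecin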 (primary screen)
System: MDA-MB-231 cells, a human breast cancer line
Reagents: single siRNA against human genes, 20 nM siRNA (0.8 pmol per well)
Time to read-out: 120 h (drug added 48 h after transfection, read 72 h later)
Conditions: camptothecin 20 nM (about EC30) for 72 h; vehicle 0.1% DMSO in parallel plates
Read-out: 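Cell viability by ATP luminescence (CellTiter-Glo) as % of non-targeting siRNA wells, and the log2 ratio of viability without drug over viability with camptothecin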
Reading the numbers: log2 vehicle/camptothecin viability: higher = stronger sensitisation to camptothecin
Hit rule: 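Each gene scored by redundant siRNA activity (RSA) over its individual siRNA ratios; a gene is called active at p < 0.001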
Shown is an unselected part of about 26,000 deposited reagents. In the full data, 167 (0.63%) are marked active. 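Calls are per gene from RSA p-values that are not deposited; an individual active-marked siRNA can sensitise only weakly.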 Reagents against one gene are numbered here. Not all columns of the deposit are shown.

no.	target	siRNA no.	log2 vehicle/camptothecin viability	outcome
1	ONECUT3	1	-0.0909	inactive
2	ONECUT3	2	-0.0546	inactive
3	ONECUT3	3	-0.0163	inactive
4	ONECUT3	4	-0.309	inactive
5	CHKA	1	-0.474	inactive
6	CHKA	2	-0.297	inactive
7	CHKA	3	-0.155	inactive
8	CHKA	4	-0.0679	inactive
9	SETD7	1	-0.0655	inactive
10	SETD7	2	0.228	inactive
11	SETD7	3	-0.186	inactive
12	SYNE2	1	-0.292	inactive
13	SYNE2	2	-0.0594	inactive
14	SYNE2	3	-0.0725	inactive
15	SYNE2	4	-0.561	inactive
16	KCNK7	1	0.427	inactive
17	KCNK7	2	0.146	inactive
18	KCNK7	3	0.0839	inactive
19	TNNI3K	1	-0.07	inactive
20	TNNI3K	2	-0.123	inactive
21	TNNI3K	3	-0.272	inactive
22	TNNI3K	4	-0.08	inactive
23	ALPK1	1	-0.129	inactive
24	ALPK1	2	0.233	inactive
25	ALPK1	3	-0.452	inactive
26	ALPK1	4	0.0819	inactive
27	SMUG1	1	0.36	inactive
28	SMUG1	2	-0.036	inactive
29	SMUG1	3	0.713	inactive
30	TBK1	1	-0.236	inactive
31	TBK1	2	-0.266	inactive
32	TBK1	3	0.105	inactive
33	TBK1	4	-0.123	inactive
34	MOCS2	1	-0.478	inactive
35	MOCS2	2	-0.177	inactive
36	MOCS2	3	-0.334	inactive
37	MOCS2	4	-0.461	inactive
38	RASEF	1	0.131	inactive
39	RASEF	2	-0.0894	inactive
40	RASEF	3	0.225	inactive
41	RASEF	4	0.0008	inactive

Individual results from the list.
Result for ALPK1 #2 in “outcome”: inactive
Under “log2 vehicle/camptothecin viability”, MOCS2 #2 is entered as -0.177
SETD7 #3, log2 vehicle/camptothecin viability → -0.186
For “log2 vehicle/camptothecin viability”, ONECUT3 #2 shows -0.0546
Result of MOCS2 #1 in “log2 vehicle/camptothecin viability”: -0.478
SYNE2 #2, log2 vehicle/camptothecin viability → -0.0594

Continued.
no.	target	siRNA no.	log2 vehicle/camptothecin viability	outcome
42	BPIFB2	1	-0.231	inactive
43	BPIFB2	2	-0.279	inactive
44	BPIFB2	3	-0.335	inactive
45	BPIFB2	4	0.0685	inactive
46	CYP2A13	1	-0.495	inactive
47	CYP2A13	2	-0.0902	inactive
48	CYP2A13	3	-0.00227	inactive
49	CYP2A13	4	-0.172	inactive
50	AEBP1	1	-0.339	inactive
51	AEBP1	2	-0.0938	inactive
52	AEBP1	3	-0.558	inactive
53	RPS6KB1	1	-0.381	inactive
54	RPS6KB1	2	0.806	inactive
55	RPS6KB1	3	-0.5	inactive
56	RPS6KB1	4	1.73	inactive
57	CYP2R1	1	-0.167	inactive
58	CYP2R1	2	0	inactive
59	CYP2R1	3	-0.246	inactive
60	CYP2R1	4	-0.0667	inactive
61	MROH1	1	-0.0386	inactive
62	MROH1	2	-0.105	inactive
63	MROH1	3	-0.284	inactive
64	MROH1	4	-0.231	inactive
65	MROH1	5	-0.605	inactive
66	MROH1	6	-0.307	inactive
67	MROH1	7	-0.453	inactive
68	MROH1	8	0.232	inactive
